No constants are given. Whether binding was seen depends on the method and setting. Some results given as binding are weak or reduced against the parent protein; the word gives no strength.
What was measured:
[1] = target: CEACAM1-eGFP fusion protein on transfected HEK293T cells (human) (UniProt P13688); assay: confocal fluorescence microscopy of labelled protein on cells; 1 µM AlexaFluor 647-labelled CbpF nanodiscs or empty nanodiscs on HEK293T cells transfected with CEACAM1-GFP, 2 h at 37 °C; cell boundaries stained with CellBrite Fix 555; only the binder purified
[2] = target: CEACAM1-eGFP fusion protein on transfected HEK293T cells (human) (UniProt P13688); assay: competition of cell binding (confocal fluorescence microscopy); labelled CbpF nanodiscs on CEACAM1-GFP transfected HEK293T cells, 1 h at 37 °C, without or after preincubation with CEACAM1-ECD; only the binder purified

Protein sequences, listed by entry. Tags and fused reporters are not part of them. Residues count along the entry.
UniProt P13688, residues 35-526: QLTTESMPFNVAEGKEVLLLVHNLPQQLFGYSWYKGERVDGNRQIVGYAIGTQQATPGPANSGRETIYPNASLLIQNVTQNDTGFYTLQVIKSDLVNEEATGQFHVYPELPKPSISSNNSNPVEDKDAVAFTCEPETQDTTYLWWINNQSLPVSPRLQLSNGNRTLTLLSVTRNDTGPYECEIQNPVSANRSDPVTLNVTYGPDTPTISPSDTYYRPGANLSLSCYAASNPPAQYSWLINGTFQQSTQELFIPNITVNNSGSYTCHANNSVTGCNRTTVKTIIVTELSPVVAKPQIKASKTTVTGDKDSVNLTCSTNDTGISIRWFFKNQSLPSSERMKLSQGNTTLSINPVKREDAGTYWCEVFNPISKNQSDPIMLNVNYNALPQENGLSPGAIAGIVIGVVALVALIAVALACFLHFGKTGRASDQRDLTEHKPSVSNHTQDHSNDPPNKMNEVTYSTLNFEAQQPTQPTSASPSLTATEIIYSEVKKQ
UniProt Q8RIS0, residues 24-479: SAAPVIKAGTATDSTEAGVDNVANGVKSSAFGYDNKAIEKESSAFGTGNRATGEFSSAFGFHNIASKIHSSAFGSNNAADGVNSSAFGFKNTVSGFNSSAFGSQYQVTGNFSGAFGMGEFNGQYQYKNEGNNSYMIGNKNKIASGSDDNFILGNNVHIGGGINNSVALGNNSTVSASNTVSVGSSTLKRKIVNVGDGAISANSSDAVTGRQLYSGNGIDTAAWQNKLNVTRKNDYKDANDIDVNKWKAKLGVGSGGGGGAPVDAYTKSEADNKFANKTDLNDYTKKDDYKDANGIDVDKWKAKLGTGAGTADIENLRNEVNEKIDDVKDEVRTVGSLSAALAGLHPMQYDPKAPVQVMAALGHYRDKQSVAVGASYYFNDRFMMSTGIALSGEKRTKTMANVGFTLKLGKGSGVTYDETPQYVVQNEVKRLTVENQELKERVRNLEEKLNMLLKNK

nanodisc-embedded CbpF labelled with AlexaFluor 647 (from UniProt Q8RIS0 24-479)
binding [1]: binds

CEACAM binding protein of Fusobacterium (CbpF), F. nucleatum ATCC25586, wild type (from UniProt Q8RIS0 24-479)
binding [2]: binds

Source: publication PMC12012533, “Structural basis for immune cell binding of Fusobacterium nucleatum via the trimeric autotransporter adhesin CbpF” (Proceedings of the National Academy of Sciences of the …, 2025)
